Source: patent publication US4996207A, “Three new non-polyglutamatable deazaaminopterins” (priority 1990, dated 1991)
At least one structure is not confirmed: it was looked up by name or label, or the drawing left a doubt.

Molecular target: T1, folylpolyglutamate synthetase (FPGS) (Homo sapiens, UniProt Q05932)
T1 construct: purified human leukemia cell folylpolyglutamate synthetase (FPGS); endogenous in cells; host or cells: CCRF-CEM human leukemia cells
T1 sequence (Q05932 43-587): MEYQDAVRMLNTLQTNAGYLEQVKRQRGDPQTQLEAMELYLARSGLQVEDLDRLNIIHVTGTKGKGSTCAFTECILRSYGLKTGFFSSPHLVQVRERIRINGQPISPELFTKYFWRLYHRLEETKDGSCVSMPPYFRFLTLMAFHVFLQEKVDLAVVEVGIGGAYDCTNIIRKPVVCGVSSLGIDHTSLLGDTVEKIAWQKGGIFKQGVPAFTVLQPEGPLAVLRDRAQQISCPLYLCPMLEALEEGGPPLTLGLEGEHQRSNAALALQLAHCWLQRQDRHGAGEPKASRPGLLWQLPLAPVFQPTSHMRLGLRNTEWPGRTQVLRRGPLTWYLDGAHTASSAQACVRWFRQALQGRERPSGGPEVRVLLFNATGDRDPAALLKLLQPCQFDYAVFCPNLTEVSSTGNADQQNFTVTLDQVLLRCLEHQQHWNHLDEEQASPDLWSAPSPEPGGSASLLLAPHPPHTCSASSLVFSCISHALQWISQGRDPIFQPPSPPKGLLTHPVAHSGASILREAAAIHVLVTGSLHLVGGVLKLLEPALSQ
Experiment: Substrate activity towards CCRF-CEM human leukemia cell folylpolyglutamate synthetase (FPGS)
Type: biochemical
Settings: Conc 50 μM
Protocol: Compounds 1, 2 and 3 were evaluated as substrates of purified human leukemia cell folylpolyglutamate synthetase (FPGS).
The assays were performed as described by McGuire, Graber, Licato, Vincenz, Coward, Nimec and Galivan in Cancer Research 49:4517 (1989).

In the case of `Nc1nc(N)c2nc(CNc3ccc(C(=O)N[C@@H](CCC(=O)O)C(=O)O)cc3)cnc2n1` [Aminopterin], the Substrate activity is reported as 950.
